Experimental data published in article doi:10.1101/2024.03.21.586141.
Read-outs that look alike come from different tables or passages of the source. These are yes or no findings as the source states them, for the method shown. In cells and extracts the contact can be indirect. Some binding calls cover weakened binding; strength is not graded here.

B1: human α1,4-galactosyltransferase (A4galt), high-frequency enzyme (p.Q211) (enzyme, UniProt Q9NPC4 1-353)
chain: MSKPPDLLLRLLRGAPRQRVCTLFIIGFKFTFFVSIMIYWHVVGEPKEKGQLYNLPAEIPCPTLTPPTPPSHGPTPGNIFFLETSDRTNPNFLFMCSVESAARTHPESHVLVLMKGLPGGNASLPRHLGISLLSCFPNVQMLPLDLRELFRDTPLADWYAAVQGRWEPYLLPVLSDASRIALMWKFGGIYLDTDFIVLKNLRNLTNVLGTQSRYVLNGAFLAFERRHEFMALCMRDFVDHYNGWIWGHQGPQLLTRVFKKWCSIRSLAESRACRGVTTLPPEAFYPIPWQDWKKYFEDINPEELPRLLSATYAVHVWNKKSQGTRFEATSRALLAQLHARYCPTTHEAMKMYL
B2: human α1,4-galactosyltransferase (A4galt), mutein with p.Q211E substitution (enzyme, UniProt Q9NPC4 1-353)
chain: MSKPPDLLLRLLRGAPRQRVCTLFIIGFKFTFFVSIMIYWHVVGEPKEKGQLYNLPAEIPCPTLTPPTPPSHGPTPGNIFFLETSDRTNPNFLFMCSVESAARTHPESHVLVLMKGLPGGNASLPRHLGISLLSCFPNVQMLPLDLRELFRDTPLADWYAAVQGRWEPYLLPVLSDASRIALMWKFGGIYLDTDFIVLKNLRNLTNVLGTESRYVLNGAFLAFERRHEFMALCMRDFVDHYNGWIWGHQGPQLLTRVFKKWCSIRSLAESRACRGVTTLPPEAFYPIPWQDWKKYFEDINPEELPRLLSATYAVHVWNKKSQGTRFEATSRALLAQLHARYCPTTHEAMKMYL

Columns and labels:
Assay in all cases: split reporter
[1] = molecular target: human α1,4-galactosyltransferase (A4galt), high-frequency enzyme (p.Q211) (human) (UniProt Q9NPC4)
[2] = molecular target: human α1,4-galactosyltransferase (A4galt), high-frequency enzyme (p.Q211) (human) (UniProt Q9NPC4); remark: listed apart in the source
[3] = molecular target: human α1,4-galactosyltransferase (A4galt), mutein with p.Q211E substitution (human) (UniProt Q9NPC4)
[4] = molecular target: human α1,4-galactosyltransferase (A4galt), mutein with p.Q211E substitution (human) (UniProt Q9NPC4); remark: listed apart in the source

| Binder | binding [1] | binding [2] | binding [3] | binding [4] |
| --- | --- | --- | --- | --- |
| B1 | binds | binds | – | – |
| B2 | – | – | binds | binds |
